# Assay results from patent US5916872A (IntraBiotics Pharmaceuticals, Inc., priority 1996, dated 1999).
# Where a sequence shows no end group, the ends are not given.
# Test: general procedure: Fmoc solid-phase peptide synthesis; Fmoc Arg(PMC) HMP solid support resin (Bachem)
# Settings: cyclisation step, overall, bicyclic, sequence written open
sequence,measurement,setting,value
CYCRRRFCVCVGRWL,cyclisation yield,run 1,about 10-20%
same,cyclisation yield,run 2,about 30-45%
